No constants are given. Whether binding was seen depends on the method and setting. Some entries that bind do so weakly or less than the wild type.

Protein sequences, listed by entry. Tags and fused reporters are not part of them. Lines headed by an entry give the natural chain unless they say otherwise; changes in a name come on top. Chains listed by the source or under a name are the forms on record and can include a tag or linker. Residues count along the entry.
EphA2 SAM domain (isolated) (P29317, residues 908-972): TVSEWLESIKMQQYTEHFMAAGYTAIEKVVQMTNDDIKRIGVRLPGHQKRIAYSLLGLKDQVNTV
EphA2 intracellular region (ICR), kinase-dead (D739N) (P29317, form named): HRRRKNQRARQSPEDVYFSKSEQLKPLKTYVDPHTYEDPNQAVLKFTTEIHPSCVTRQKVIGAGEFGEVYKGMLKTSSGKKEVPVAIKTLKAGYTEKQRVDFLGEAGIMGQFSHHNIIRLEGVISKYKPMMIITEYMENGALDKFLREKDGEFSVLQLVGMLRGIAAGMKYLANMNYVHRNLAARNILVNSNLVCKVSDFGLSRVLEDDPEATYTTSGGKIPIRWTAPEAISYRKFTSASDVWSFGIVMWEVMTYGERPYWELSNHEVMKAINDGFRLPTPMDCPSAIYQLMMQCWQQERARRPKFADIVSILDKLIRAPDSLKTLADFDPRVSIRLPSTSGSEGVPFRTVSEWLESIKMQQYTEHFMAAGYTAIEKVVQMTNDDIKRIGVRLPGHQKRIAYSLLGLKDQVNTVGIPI

Assay [1] concerns the target EphA2 intracellular region (ICR), kinase-dead (D739N) (human) (UniProt P29317). In words: MST.
Assay [2] shares this target. Description: NMR titration.
The target is the same in assay [3]. In words: MST. The source holds these as a separate data set.

Consider “EphA2 SAM domain (isolated) (from UniProt P29317 908-972) (domain or fragment)”, for which the binding result in assay [1] and in assay [2] was “binds” each time.

B1: SHIP2 SAM domain (isolated) (domain or fragment, UniProt O15357 1200-1258)
chain: GMSAWLRAIGLERYEEGLVHNGWDDLEFLSDITEEDLEEAGVQDPAHKRLLLDTLQLSK
Regarding B1, the binding entry in assay [3] is listed as “binds”.

Values taken from article doi:10.1101/2025.09.29.679228.
